Results: paper PMC3124506
No constants are given. Whether binding was seen depends on the method and setting.

Biological target: MinE^1-31 (E. coli) (UniProt P0A734)
Assay: co-sedimentation; sedimentation assay of MinE^32-88 mixed with MinE^1-31 in the presence of liposomes (PE:PG:CL = 36:14:50 mol%); supernatant and pellet fractions analysed; both purified

binding: no binding
Substance: MinE^32-88 (from UniProt P0A734 32-88) (domain or fragment)
